No constants are given. Whether binding was seen depends on the method and setting. In cells and extracts the contact can be indirect. Some results given as binding are weak or reduced against the parent protein; the word gives no strength.
Target: endogenous EZH2 (Enhancer of Zeste Homolog 2) (human (endogenous in LNCaP, LNCaP-abl, C4-2B, 22Rv1)) (UniProt Q15910)
Assay: co-IP

The chains behind the UniProt entries cited, without tags or fusion partners.
UniProt Q15910: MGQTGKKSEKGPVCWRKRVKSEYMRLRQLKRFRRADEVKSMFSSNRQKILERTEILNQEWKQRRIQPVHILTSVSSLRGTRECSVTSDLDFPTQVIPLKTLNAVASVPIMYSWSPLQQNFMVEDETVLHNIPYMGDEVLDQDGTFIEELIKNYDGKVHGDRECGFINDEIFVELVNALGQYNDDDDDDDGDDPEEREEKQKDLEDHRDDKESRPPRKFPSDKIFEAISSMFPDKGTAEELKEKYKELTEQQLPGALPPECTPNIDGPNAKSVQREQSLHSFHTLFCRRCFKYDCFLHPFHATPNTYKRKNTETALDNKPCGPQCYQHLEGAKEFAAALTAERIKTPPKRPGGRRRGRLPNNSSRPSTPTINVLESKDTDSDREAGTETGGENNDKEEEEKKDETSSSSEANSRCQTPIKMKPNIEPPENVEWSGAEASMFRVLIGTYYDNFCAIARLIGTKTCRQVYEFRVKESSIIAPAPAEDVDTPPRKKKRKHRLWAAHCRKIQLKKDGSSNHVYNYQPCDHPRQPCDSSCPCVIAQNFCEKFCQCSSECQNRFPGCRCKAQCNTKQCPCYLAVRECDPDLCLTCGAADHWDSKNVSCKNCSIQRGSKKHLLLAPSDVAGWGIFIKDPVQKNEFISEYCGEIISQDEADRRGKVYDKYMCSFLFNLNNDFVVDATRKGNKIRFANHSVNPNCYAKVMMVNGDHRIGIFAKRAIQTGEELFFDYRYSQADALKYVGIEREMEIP
UniProt Q12905: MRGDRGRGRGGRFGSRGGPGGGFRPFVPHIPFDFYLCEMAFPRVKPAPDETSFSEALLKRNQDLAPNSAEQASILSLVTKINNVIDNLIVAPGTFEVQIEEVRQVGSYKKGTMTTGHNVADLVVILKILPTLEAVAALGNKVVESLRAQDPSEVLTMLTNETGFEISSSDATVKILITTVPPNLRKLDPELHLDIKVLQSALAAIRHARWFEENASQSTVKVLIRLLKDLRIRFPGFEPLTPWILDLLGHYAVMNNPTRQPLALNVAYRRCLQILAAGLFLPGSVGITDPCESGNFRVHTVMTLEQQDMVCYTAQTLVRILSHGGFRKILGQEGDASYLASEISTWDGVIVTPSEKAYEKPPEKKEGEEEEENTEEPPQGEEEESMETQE

Row | binding | Molecule
1 | binds | endogenous NF45 (nuclear factor 45) (from UniProt Q12905 1-390)
2 | binds | endogenous NF110 (protein, UniProt Q12906 1-894) MRPMRIFVNDDRHVMAKHSSVYPTQEELEAVQNMVSHTERALKAVSDWIDEQEKGSSEQAESDNMDVPPEDDSKEGAGEQKTEHMTRTLRGVMRVGLVAKGLLLKGDLDLELVLLCKEKPTTALLDKVADNLAIQLAAVTEDKYEILQSVDDAAIVIKNTKEPPLSLTIHLTSPVVREEMEKVLAGETLSVNDPPDVLDRQKCLAALASLRHAKWFQARANGLKSCVIVIRVLRDLCTRVPTWGPLRGWPLELLCEKSIGTANRPMGAGEALRRVLECLASGIVMPDGSGIYDPCEKEATDAIGHLDRQQREDITQSAQHALRLAAFGQLHKVLGMDPLPSKMPKKPKNENPVDYTVQIPPSTTYAITPMKRPMEEDGEEKSPSKKKKKIQKKEEKAEPPQAMNALMRLNQLKPGLQYKLVSQTGPVHAPIFTMSVEVDGNSFEASGPSKKTAKLHVAVKVLQDMGLPTGAEGRDSSKGEDSAEETEAKPAVVAPAPVVEAVSTPSAAFPSDATAEQGPILTKHGKNPVMELNEKRRGLKYELISETGGSHDKRFVMEVEVDGQKFQGAGSNKKVAKAYAALAALEKLFPDTPLALDANKKKRAPVPVRGGPKFAAKPHNPGFGMGGPMHNEVPPPPNLRGRGRGGSIRGRGRGRGFGGANHGGYMNAGAGYGSYGYGGNSATAGYSQFYSNGGHSGNASGGGGGGGGGSSGYGSYYQGDNYNSPVPPKHAGKKQPHGGQQKPSYGSGYQSHQGQQQSYNQSPYSNYGPPQGKQKGYNHGQGSYSYSNSYNSPGGGGGSDYNYESKFNYSGSGGRSGGNSYGSGGASYNPGSHGGYGGGSGGGSSYQGKQGGYSQSNYNSPGSGQNYSGPPSSYQSSQGGYGRNADHSMNYQYR

Reference: article doi:10.64898/2025.12.02.691892
